Test results reported in the supplement of paper PMC9015667.
Structures can show the parent of a compound that is named as a salt. The list shows a part of the results. Many values rest on one well or one pass, so single values are uncertain.

Assays:
Experiment in all cases: reduction in cell viability relative to untreated/vehicle; higher = more growth inhibition
Conditions in all cases: 200 nM; 72 h
M229P = system: M229P (parental melanoma line)
M229R = system: M229R (matched melanoma line resistant to BRAF inhibitors)
M238P = system: M238P (parental melanoma line)
M238R = system: M238R (matched melanoma line resistant to BRAF inhibitors)
M249P = system: M249P (parental melanoma line)
M249R = system: M249R (matched melanoma line resistant to BRAF inhibitors)
UACC62P = system: UACC62P (parental melanoma line)
UACC62R = system: UACC62R (matched melanoma line resistant to BRAF inhibitors)

Measured: reduction in cell viability

CN(C)CCC=C1c2ccccc2C=Cc2ccccc21 [Cyclobenzaprine hydrochloride]
< 0%: all assays above

NC(=O)c1nnn(Cc2cc(Cl)c(C(=O)c3ccc(Cl)cc3)c(Cl)c2)c1N [Carboxyamidotriazole]
14.7%: M229R
< 0%: all other assays above

O=C(O)Cc1ccccc1Nc1c(Cl)cccc1Cl [Diclofenac sodium]
2.99%: UACC62P
< 0%: all other assays above

NC(=O)OCC(COC(N)=O)c1ccccc1 [Felbamate]
8.52%: UACC62P
< 0%: all other assays above

COc1cc2ncnc(Nc3cc(Br)c(O)c(Br)c3)c2cc1OC
< 0%: all assays above

CC(C)(CO)[C@@H](O)C(=O)NCCC(=O)O [Pantothenic acid]
< 0%: all assays above

Cc1nnc(C(=O)NC(C)(C)c2nc(C(=O)NCc3ccc(F)cc3)c(O)c(=O)n2C)o1 [Raltegravir]
< 0%: all assays above

Cn1c(=O)c2[nH]cnc2n(C)c1=O [Theophyllamine]
< 0%: all assays above

O=C(O)[C@H]1O[C@@H](Oc2cc3oc(-c4ccccc4)cc(=O)c3c(O)c2O)[C@H](O)[C@@H](O)[C@@H]1O [Baicalin]
1.57%: M229R
< 0%: all other assays above

CNC[C@H](O)c1ccc(O)c(O)c1 [Epinephrine]
< 0%: all assays above

COc1cc2ncnc(Nc3cccc(Br)c3)c2cc1OC
< 0%: all assays above

C[C@@H]1C/C=C/C=C/C=C/C=C/[C@H](O[C@@H]2O[C@H](C)[C@@H](O)[C@H](N)[C@@H]2O)C[C@@H]2O[C@](O)(C[C@@H](O)C[C@H]3O[C@@H]3/C=C/C(=O)O1)C[C@H](O)[C@H]2C(=O)O [Natamycin]
< 0%: all assays above

Cc1cc(Nc2cc(N3CCN(C)CC3)nc(Sc3ccc(NC(=O)C4CC4)cc3)n2)n[nH]1 [Tozasertib]
7.94%: M249R
5.1%: UACC62P
65.1%: UACC62R
22.2%: M238P
27.9%: M238R
< 0%: all other assays above

O=C(O)c1cn(C2CC2)c2cc(N3CCNCC3)c(F)cc2c1=O [Ciprofloxacin]
< 0%: all assays above

CC(=O)O[C@H]1C(=O)[C@@]2(C)[C@H]([C@H](OC(=O)c3ccccc3)[C@]3(O)C[C@H](OC(=O)[C@H](O)[C@@H](NC(=O)c4ccccc4)c4ccccc4)C(C)=C1C3(C)C)[C@]1(OC(C)=O)CO[C@@H]1C[C@@H]2O [Paclitaxel]
54.4%: M249R
91.1%: UACC62R
88.9%: M238P
72.6%: M238R
38.5%: M229P
57.4%: M229R
57.9%: M249P
69.8%: UACC62P

Cc1nc(=O)c2cc(CN(C)c3ccc(C(=O)N[C@@H](CCC(=O)O)C(=O)O)s3)ccc2[nH]1 [Raltitrexed]
11.8%: M229R
66.6%: UACC62R
19.1%: M238P
28.4%: UACC62P
< 0%: all other assays above

Cc1ccnc2c1NC(=O)c1cccnc1N2C1CC1 [Nevirapine]
< 0%: all assays above

Cc1c[nH]c(/C=C2\C(=O)Nc3ccccc32)c1CCC(=O)O
13.8%: UACC62P
< 0%: all other assays above

COc1cc(NC(=O)c2ccc(-c3ccc(Cl)cc3)o2)cc(OC)c1
< 0%: all assays above

N[C@@H](C(=O)N[C@@H]1C(=O)N2C(C(=O)O)=C(Cl)CS[C@H]12)c1ccccc1 [Cefaclor]
< 0%: all assays above

Cc1cc(Cl)ccc1OCCCC(=O)NO [Droxinostat]
< 0%: all assays above

C=C1CC[C@@H]2[C@](C)(CO)[C@H](O)CC[C@@]2(C)[C@@H]1C/C=C1/C(=O)OC[C@H]1O [Andrographolide]
< 0%: all assays above

CCCCc1ccc(NS(=O)(=O)c2ccc(C)c(C(=O)N3CCN(c4cccc(C)c4C)CC3)c2)cc1
< 0%: all assays above

CC(C)NCC(O)COc1ccc(COCCOC(C)C)cc1 (stereo not given) [Bisoprolol]
2.92%: M229R
< 0%: all other assays above

O=C(O)C[C@H](O)C[C@H](O)/C=C/c1c(C2CC2)nc2ccccc2c1-c1ccc(F)cc1 [Pitavastatin calcium]
43.5%: M238P
< 0%: all other assays above

CN(C)CCc1c[nH]c2ccc(C[C@H]3COC(=O)N3)cc12 [Zolmitriptan]
3.5%: UACC62P
2.03%: M249R
< 0%: all other assays above

CC(/C=C/C(=O)NO)=C\[C@@H](C)C(=O)c1ccc(N(C)C)cc1 [Trichostatin A]
27%: M229R
48.2%: M238P
33.4%: M238R
73.4%: M229P
55.4%: M249P
55.9%: M249R
75.2%: UACC62P
78.8%: UACC62R

O=C(O)CCCCC(CCSCc1ccccc1)SCc1ccccc1 (stereo not given)
14.1%: UACC62P
0.09%: M249R
< 0%: all other assays above

COC(=O)C[C@](O)(CCCC(C)(C)O)C(=O)O[C@@H]1C(OC)=C[C@]23CCCN2CCc2cc4c(cc2[C@H]13)OCO4 [Omacetaxine mepesuccinate]
60.4%: M229P
68.4%: M229R
73.5%: M238R
63%: UACC62P
54.6%: UACC62R
64.6%: M249P
76.1%: M249R
67.8%: M238P

O=C1CCC(N2C(=O)c3ccccc3C2=O)C(=O)N1 (stereo not given) [Thalidomide]
< 0%: all assays above

CNCCCC12CCC(c3ccccc31)c1ccccc12 [Maprotiline hydrochloride]
1.97%: M249R
< 0%: all other assays above

CC(=O)OCC(CCn1cnc2cnc(N)nc21)COC(C)=O [Famciclovir]
< 0%: all assays above

CC(C)Cn1cnc2c(N)nc3ccccc3c21 [Imiquimod]
5.69%: UACC62P
< 0%: all other assays above

CC(=O)C1=C(O)C=C2Oc3c(C(C)=O)c(O)c(C)c(O)c3C2(C)C1=O (single isomer, unassigned; (+)) [(+)-Usniacin]
< 0%: all assays above

CNS(=O)(=O)CCc1ccc2[nH]cc(C3CCN(C)CC3)c2c1 [Naratriptan hydrochloride]
< 0%: all assays above

CCCNC(=O)Nc1ccc(Oc2ncnc3cc(OC)c(OC)cc23)cc1Cl
7.14%: UACC62P
7.95%: M249P
< 0%: all other assays above

CCCCCN(C)CCC(O)(P(=O)(O)O)P(=O)(O)O [Ibandronate sodium hydrate]
< 0%: all assays above

O=C(C[S+]([O-])Cc1ccco1)NC/C=C\COc1cc(CN2CCCCC2)ccn1 (stereo not given) [Lafutidine]
< 0%: all assays above

Fetched by compound from the entries so far (two):
COc1cc2ncnc(Nc3cc(Br)c(O)c(Br)c3)c2cc1OC
< 0%: all assays above

O=C(O)C[C@H](O)C[C@H](O)/C=C/c1c(C2CC2)nc2ccccc2c1-c1ccc(F)cc1 [Pitavastatin calcium]
43.5%: M238P
< 0%: all other assays above

(listing goes on)

C/C=C(/C(=C/C)c1ccc(O)cc1)c1ccc(O)cc1 [Dienestrol]
1.64%: UACC62P
14.3%: M249R
< 0%: all other assays above

CC1=C(CO)C(=O)OC([C@@H](C)C2CC[C@H]3C4C[C@H]5O[C@]56[C@@H](O)C=CC(=O)[C@]6(C)C4CC[C@]23C)C1 (stereo not given in full)
59.8%: M238R
41.3%: M238P
36.2%: M229R
48.8%: UACC62P
15.1%: M249R
19.5%: M249P
46.3%: M229P
60.9%: UACC62R
